Results on two molecules are retold here after paper PMC5604497.

Results are given in words; binding and its absence hold for the method and conditions named. For some of these results: In cells and extracts the contact can be indirect. Some results given as binding are weak or reduced against the parent protein; the word gives no strength. Where a sequence is shown, tags or fusion partners need not be part of it.

Test [1] addresses T1, ArcB-T18 (sensor kinase ArcB C-terminally fused to the T18 fragment of Bordetella pertussis adenylate cyclase) (E. coli (strain MG1655)) (UniProt P0AEC3).
T1 sequence: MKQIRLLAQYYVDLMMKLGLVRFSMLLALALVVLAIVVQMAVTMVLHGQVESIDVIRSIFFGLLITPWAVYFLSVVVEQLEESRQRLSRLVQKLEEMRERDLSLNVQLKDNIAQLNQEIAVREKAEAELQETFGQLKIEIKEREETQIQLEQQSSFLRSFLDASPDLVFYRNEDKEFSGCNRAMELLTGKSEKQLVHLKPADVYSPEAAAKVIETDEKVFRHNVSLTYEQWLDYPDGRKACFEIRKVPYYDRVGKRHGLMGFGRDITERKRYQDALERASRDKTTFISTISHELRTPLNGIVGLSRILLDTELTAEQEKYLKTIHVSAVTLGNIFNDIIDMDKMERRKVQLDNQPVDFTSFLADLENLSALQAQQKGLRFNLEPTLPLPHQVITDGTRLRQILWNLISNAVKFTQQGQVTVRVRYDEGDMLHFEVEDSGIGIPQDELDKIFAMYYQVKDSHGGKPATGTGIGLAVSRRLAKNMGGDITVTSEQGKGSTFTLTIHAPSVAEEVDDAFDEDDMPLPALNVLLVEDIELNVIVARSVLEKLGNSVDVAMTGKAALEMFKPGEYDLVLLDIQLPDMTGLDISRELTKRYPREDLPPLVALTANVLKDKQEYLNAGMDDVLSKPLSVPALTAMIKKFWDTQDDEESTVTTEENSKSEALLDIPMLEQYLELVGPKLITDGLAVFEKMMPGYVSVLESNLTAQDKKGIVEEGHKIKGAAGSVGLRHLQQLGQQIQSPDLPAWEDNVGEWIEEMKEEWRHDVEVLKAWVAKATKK
Kind of test: two-hybrid; bacterial two-hybrid (BACTH), T18 and T25 fusions co-overexpressed in adenylate-cyclase-deficient E. coli BTH-101, LB pH 7, aerobic, OD600 ~0.6; ß-galactosidase activity (ONPG) in Miller units, three biological replicates; background with empty vectors about 400 MU.

For test [2], the target named is T2, CpxA-Strep (plasmid-encoded C-terminal fusion of CpxA with Strep-tag) (E. coli (strain MG1655)) (UniProt P0AE82).
T2 sequence: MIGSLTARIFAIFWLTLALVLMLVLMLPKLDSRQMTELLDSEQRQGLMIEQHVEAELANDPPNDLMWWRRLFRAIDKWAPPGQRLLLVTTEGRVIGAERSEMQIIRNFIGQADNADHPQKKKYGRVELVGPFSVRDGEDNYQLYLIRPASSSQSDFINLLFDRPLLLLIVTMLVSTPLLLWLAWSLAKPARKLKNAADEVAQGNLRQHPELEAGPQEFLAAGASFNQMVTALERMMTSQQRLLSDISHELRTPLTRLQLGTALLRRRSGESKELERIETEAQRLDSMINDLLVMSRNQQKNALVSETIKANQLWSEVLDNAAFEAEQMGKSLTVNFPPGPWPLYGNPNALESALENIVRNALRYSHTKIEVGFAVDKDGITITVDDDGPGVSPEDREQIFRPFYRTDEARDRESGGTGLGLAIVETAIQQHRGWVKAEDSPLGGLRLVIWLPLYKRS
As to the kind of experiment: pull-down; Membrane-SPINE as a2 with 5 μg ml^−1 gentamicin but without the cross-linker formaldehyde; CpxA-Strep purified on Strep-tactin column; immunoblot. (In western blotting, separated proteins are transferred to a membrane and probed.)

The target of test [3] is T2, CpxA-Strep (plasmid-encoded C-terminal fusion of CpxA with Strep-tag) (E. coli (strain MG1655)). Kind of test: cross-linking + pull-down; Membrane-SPINE as a2 but cells not treated with gentamicin; 0.6% formaldehyde added.
Test [4] shares this target. Kind of test: cross-linking + pull-down; Membrane-SPINE: cells treated with 5 μg ml^−1 gentamicin for 40 min and 0.6% formaldehyde for the last 20 min; membranes solubilised with 2% DDM; CpxA-Strep purified on Strep-tactin column; cross-links removed by boiling; immunoblot for Strep and Snap tags.

B1: T25-CpxR (response regulator CpxR N-terminally fused to the T25 fragment of Bordetella pertussis adenylate cyclase) (protein, UniProt P0AE88 1-232)
chain: MNKILLVDDDRELTSLLKELLEMEGFNVIVAHDGEQALDLLDDSIDLLLLDVMMPKKNGIDTLKALRQTHQTPVIMLTARGSELDRVLGLELGADDYLPKPFNDRELVARIRAILRRSHWSEQQQNNDNGSPTLEVDALVLNPGRQEASFDGQTLELTGTEFTLLYLLAQHLGQVVSREHLSQEVLGKRLTPFDRAIDMHISNLRRKLPDRKDGHPWFKTLRGRGYLMVSAS
Take B1: the binding result in test [1] is “no binding”.

B2: ArcA-Snap (chromosomally-encoded fusion protein of ArcA with a Snap-Tag) (protein, UniProt P0A9Q1 1-238)
chain: MQTPHILIVEDELVTRNTLKSIFEAEGYDVFEATDGAEMHQILSEYDINLVIMDINLPGKNGLLLARELREQANVALMFLTGRDNEVDKILGLEIGADDYITKPFNPRELTIRARNLLSRTMNLGTVSEERRSVESYKFNGWELDINSRSLIGPDGEQYKLPRSEFRAMLHFCENPGKIQSRAELLKKMTGRELKPHDRTVDVTIRRIRKHFESTPDTPEIIATIHGEGYRFCGDLED
On to B2, for which the values for the binding entry in test [2], in test [3] and in test [4] were “binds weakly”, “binds weakly” and “binds”, respectively.
